Where two headings read alike, the source gives them in different places.
Key:
clinical = details: human, in vivo
CYP2C9 = CYP2C9 (Homo sapiens, UniProt P11712); details: estimated
CYP2C9 or CYP3A4 = details: in vivo
CYP3A4 = CYP3A4 (Homo sapiens, UniProt P08684); details: estimated
[1] = test system: metastatic or surgically unresectable urothelial cancer harboring select FGFR genetic alterations
Text: The study comprises a Screening Phase (molecular screening at any time prior to first dose and study screening within 30 days of first dose), a treatment phase, and a post-treatment follow-up phase. The treatment phase comprises the period from first dose until the end-of-treatment visit. The follow-up phase extends until the subject has died, withdraws consent, is lost to follow-up, or the end of study, whichever comes first.
Included patients were adults with measurable urothelial cancer per Response Evaluation Criteria in Solid Tumors version 1.1.
Patients were required to have at least 1 FGFR2/FGFR3 mutation or fusion per central lab testing of RNA from formalin-fixed, paraffin-embedded tumor samples, using a custom reverse transcriptase polymerase chain reaction assay.
The primary end point of this study is Objective Response Rate to the selected regimen (Regimen 3).
Secondary end points include progression-free survival (PFS), response duration, Overall Survival, safety, response rate in biomarker-specific subgroups, and pharmacokinetics.
The study was designed to enroll 180 patients with specified FGFR alterations. Of these, ≥88 were required in the selected regimen. […] Responses were assessed by investigators and an independent radiological review committee. Progression-free survival and overall survival were estimated using Kaplan-Meier product limit method. Data from patients who were progression free and alive or with unknown status were censored at last tumor assessment. Efficacy end points were analysed at primary analysis cut-off.

Sequences of proteins named here, by UniProt entry; tags and fusion partners are left off.
UniProt P11712, whole entry: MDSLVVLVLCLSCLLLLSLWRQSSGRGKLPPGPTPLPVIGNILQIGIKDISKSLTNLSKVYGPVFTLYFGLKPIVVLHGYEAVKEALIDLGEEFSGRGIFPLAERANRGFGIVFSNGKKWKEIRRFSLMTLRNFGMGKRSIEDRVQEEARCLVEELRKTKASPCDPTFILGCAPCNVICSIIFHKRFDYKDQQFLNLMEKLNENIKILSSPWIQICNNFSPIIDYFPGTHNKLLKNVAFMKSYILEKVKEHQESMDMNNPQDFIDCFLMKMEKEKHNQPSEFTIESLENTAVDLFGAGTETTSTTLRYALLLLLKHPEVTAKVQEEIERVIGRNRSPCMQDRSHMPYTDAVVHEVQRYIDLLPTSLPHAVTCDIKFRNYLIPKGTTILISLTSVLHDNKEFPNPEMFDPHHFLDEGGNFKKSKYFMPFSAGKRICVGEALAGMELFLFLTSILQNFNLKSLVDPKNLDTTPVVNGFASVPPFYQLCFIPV
UniProt P08684, whole entry: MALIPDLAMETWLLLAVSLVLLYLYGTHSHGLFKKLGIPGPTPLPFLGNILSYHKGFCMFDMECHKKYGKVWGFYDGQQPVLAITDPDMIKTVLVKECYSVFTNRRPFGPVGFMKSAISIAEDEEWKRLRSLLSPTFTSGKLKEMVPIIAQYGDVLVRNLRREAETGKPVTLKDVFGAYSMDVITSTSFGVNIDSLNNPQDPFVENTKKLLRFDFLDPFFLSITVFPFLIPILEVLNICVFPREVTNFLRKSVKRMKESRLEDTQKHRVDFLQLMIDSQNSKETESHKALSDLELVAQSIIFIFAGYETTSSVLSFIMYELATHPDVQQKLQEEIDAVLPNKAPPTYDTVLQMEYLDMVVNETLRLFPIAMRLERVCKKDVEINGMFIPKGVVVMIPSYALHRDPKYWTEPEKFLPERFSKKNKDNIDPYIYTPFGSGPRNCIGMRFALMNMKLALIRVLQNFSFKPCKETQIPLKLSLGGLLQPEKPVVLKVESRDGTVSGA

[2] = 6 mg continuous, regimen 2 (n = 78)
[3] = 8 mg continuous, selected regimen 3 (n = 99)
[4] = 10 mg intermittent, regimen 1 (n = 33)

COc1cc(OC)cc(N(CCNC(C)C)c2ccc3ncc(-c4cnn(C)c4)nc3c2)c1 [erdafitinib, N-(3,5-dimethoxy-phenyl)-N′-(1-methylethyl)-N-[3-(1-methyl-1H-pyrazol-4-yl)quinoxalin-6-yl]ethane-1,2-diamine]
Tmax (clinical): 2.5 h | Contribution of CYP2C9 in the total clearance (CYP2C9): 39% | Effect of co-administration of strong inhibitors of CYP2C9 or CYP3A4 (CYP2C9 or CYP3A4): increased erdafitinib plasma concentrations | Patients with Nail discoloration, Any grade [2]: 8 (10) no. (%) | Patients with Nail discoloration, Grade 1 [2]: 6 (8) no. (%) | Patients with Nail discoloration, Grade 2 [2]: 2 (3) no. (%) | Patients with Nail discoloration, Grade ≥3 [2]: 0 no. (%) | Treatment-related adverse event: Nail discoloration, Any grade [2]: 8 (10) no. (%) | Treatment-related adverse event: Nail discoloration, Grade 1 [2]: 6 (8) no. (%) | Treatment-related adverse event: Nail discoloration, Grade 2 [2]: 2 (3) no. (%) | Treatment-related adverse event: Nail discoloration, Grade ≥3 [2]: 0 no. (%) | Patients with Nail discoloration, Any grade [3]: 11 (11) no. (%) | Patients with Nail discoloration, Grade 1 [3]: 8 (8) no. (%) | Patients with Nail discoloration, Grade 2 [3]: 3 (3) no. (%) | Patients with Nail discoloration, Grade ≥3 [3]: 0 no. (%) | Patients with Nail discoloration, Any grade [4]: 1 (3) no. (%) | Patients with Nail discoloration, Grade 1 [4]: 0 no. (%) | Patients with Nail discoloration, Grade 2 [4]: 1 (3) no. (%) | Patients with Nail discoloration, Grade ≥3 [4]: 0 no. (%) | Treatment-related adverse event: Nail discoloration, Any grade [4]: 1 (3) no. (%) | Treatment-related adverse event: Nail discoloration, Grade 1 [4]: 0 no. (%) | Treatment-related adverse event: Nail discoloration, Grade 2 [4]: 1 (3) no. (%) | Treatment-related adverse event: Nail discoloration, Grade ≥3 [4]: 0 no. (%) | Contribution of CYP3A4 in the total clearance (CYP3A4): 20% | Median DoR, investigator assessment ([1]; Chemotherapy-refractory patients in Regimen 3 (N = 87)): 5.55 months | Median duration of response ([1]; Regimen 1, 10 mg intermittent (n = 33)): 13.4 mo | Median duration of response ([1]; Regimen 2, 6 mg continuous (n = 78)): 4.9 mo | Median duration of stable disease ([1]; Regimen 3, patients with FGFR mutations (n=74)): 3.7 months
